Test results published in PMC3958891.
No constants are given. Whether binding was seen depends on the method and setting. For some of these results: Binding seen in cells or lysates may run through a third protein. Some entries that bind do so weakly or less than the wild type. For some of these results: Tags and fused reporters may be left off the sequences shown. One block for each molecule: values may come before it.

Chains of the proteins cited; added tags and fusions are not shown. Lines headed by an entry give the natural chain unless they say otherwise; changes in a name come on top. A line that says so, or that is headed by a name, gives the form on record, which may keep a tag or linker. Residues count along the entry.
UniProt P08588: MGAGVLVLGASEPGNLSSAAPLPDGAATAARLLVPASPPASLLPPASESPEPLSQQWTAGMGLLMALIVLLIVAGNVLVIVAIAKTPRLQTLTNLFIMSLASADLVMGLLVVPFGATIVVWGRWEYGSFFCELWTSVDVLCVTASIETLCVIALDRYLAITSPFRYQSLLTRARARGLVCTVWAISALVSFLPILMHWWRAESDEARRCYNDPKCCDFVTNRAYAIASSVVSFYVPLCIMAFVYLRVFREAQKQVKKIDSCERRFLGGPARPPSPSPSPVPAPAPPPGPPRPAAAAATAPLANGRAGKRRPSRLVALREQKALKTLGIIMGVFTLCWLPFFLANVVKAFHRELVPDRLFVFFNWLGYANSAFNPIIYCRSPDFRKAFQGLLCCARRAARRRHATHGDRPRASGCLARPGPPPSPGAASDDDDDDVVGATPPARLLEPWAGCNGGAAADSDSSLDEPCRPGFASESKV
GST-β1AR L3 (third intracellular loop, residues 249 to 325): residues 249-325 of P08588
GST-β1AR L3 C-terminus (residues 288 to 325): residues 288-325 of P08588
GST-β1AR L3-CT/3A (residues 288 to 325 with K308RR310 changed to AAA) (P08588, form named): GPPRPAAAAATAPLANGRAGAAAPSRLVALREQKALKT

Experiments:
GST-golgin-160(1-393) = target: T1, GST-golgin-160(1-393) (UniProt Q08378); test: pull-down; 10 μg GST-golgin-160(1-393) pre-conjugated to glutathione-Sepharose 4B beads; detergent lysate of transfected HeLa cells (125 mM potassium acetate, 25 mM HEPES pH 7.1, 1 mM DTT, 1% NP-40), 2 h at 4 °C; anti-FLAG immunoblot, normalised to input; only the target purified
T1 sequence: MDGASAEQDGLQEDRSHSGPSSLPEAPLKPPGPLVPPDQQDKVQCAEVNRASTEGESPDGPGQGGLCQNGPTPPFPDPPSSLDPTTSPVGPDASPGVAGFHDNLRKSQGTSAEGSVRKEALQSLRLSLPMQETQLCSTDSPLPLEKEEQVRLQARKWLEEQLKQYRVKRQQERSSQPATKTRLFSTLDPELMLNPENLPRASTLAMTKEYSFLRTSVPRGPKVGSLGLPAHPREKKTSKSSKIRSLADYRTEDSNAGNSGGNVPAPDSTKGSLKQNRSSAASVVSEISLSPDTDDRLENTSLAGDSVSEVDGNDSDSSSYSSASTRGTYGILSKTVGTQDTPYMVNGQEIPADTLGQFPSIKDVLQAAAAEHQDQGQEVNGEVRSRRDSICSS

[1] = target: GST-β1AR L3 (third intracellular loop, residues 249 to 325) (human) (UniProt P08588); test: pull-down; purified GST-β1AR L3 (5 μg) pre-bound to glutathione-Sepharose 4B beads; purified untagged golgin-160(1-393) added in elution buffer (20 mM HEPES pH 8.5, 500 mM NaCl, 1 mM EDTA, 50 mM DTT), 4-6 h at 4 °C; Coomassie blue staining after SDS-PAGE; both purified
[2] = target: GST-β1AR L3 C-terminus (residues 288 to 325) (human) (UniProt P08588); test: pull-down; purified GST fusions (3 μg) pre-bound to glutathione-Sepharose beads; IVTT [35S]-labeled golgin-160(1-393) in 25 mM HEPES, 125 mM KOAc, 5 mM EDTA, 0.5% NP-40, 1 mM DTT, 2 h at 4 °C; phosphorimaging after SDS-PAGE; only the target purified
[3] = target: GST-β1AR L3-CT/3A (residues 288 to 325 with K308RR310 changed to AAA) (human) (UniProt P08588); test: as above

- binding (GST-golgin-160(1-393)): binds
Molecule: full-length FLAG-tagged β1AR WT (from UniProt P08588 1-477) (receptor)

- binding [1]: binds
B1: untagged, purified golgin-160(1-393) head domain (domain or fragment, UniProt Q08378 1-393)
chain: MDGASAEQDGLQEDRSHSGPSSLPEAPLKPPGPLVPPDQQDKVQCAEVNRASTEGESPDGPGQGGLCQNGPTPPFPDPPSSLDPTTSPVGPDASPGVAGFHDNLRKSQGTSAEGSVRKEALQSLRLSLPMQETQLCSTDSPLPLEKEEQVRLQARKWLEEQLKQYRVKRQQERSSQPATKTRLFSTLDPELMLNPENLPRASTLAMTKEYSFLRTSVPRGPKVGSLGLPAHPREKKTSKSSKIRSLADYRTEDSNAGNSGGNVPAPDSTKGSLKQNRSSAASVVSEISLSPDTDDRLENTSLAGDSVSEVDGNDSDSSSYSSASTRGTYGILSKTVGTQDTPYMVNGQEIPADTLGQFPSIKDVLQAAAAEHQDQGQEVNGEVRSRRDSICSS

- binding [2]: binds
- binding [3]: no binding
B2: in vitro transcribed and translated [35S]-labeled golgin-160(1-393) (domain or fragment, UniProt Q08378 1-393)
chain: MDGASAEQDGLQEDRSHSGPSSLPEAPLKPPGPLVPPDQQDKVQCAEVNRASTEGESPDGPGQGGLCQNGPTPPFPDPPSSLDPTTSPVGPDASPGVAGFHDNLRKSQGTSAEGSVRKEALQSLRLSLPMQETQLCSTDSPLPLEKEEQVRLQARKWLEEQLKQYRVKRQQERSSQPATKTRLFSTLDPELMLNPENLPRASTLAMTKEYSFLRTSVPRGPKVGSLGLPAHPREKKTSKSSKIRSLADYRTEDSNAGNSGGNVPAPDSTKGSLKQNRSSAASVVSEISLSPDTDDRLENTSLAGDSVSEVDGNDSDSSSYSSASTRGTYGILSKTVGTQDTPYMVNGQEIPADTLGQFPSIKDVLQAAAAEHQDQGQEVNGEVRSRRDSICSS
modifications: [35S]-labeled
